These are yes or no findings as the source states them, for the method shown. Binding seen in cells or lysates may run through a third protein. Some results given as binding are weak or reduced against the parent protein; the word gives no strength.
Target: NanoLuc (NLuc) luciferase-fused murine USP18 (mouse) (UniProt Q9WTV6)
Assay: FRET or BRET; NanoBRET in HEK293T cells expressing NanoLuc-fused USP18 and HaloTag-fused ISG15 or STAT2; cells treated with increasing concentrations of BB07CA902 and BB06CA902 (up to 10 µM); p53-MDM2 as negative control pair

Protein sequences, listed by entry. Tags and fused reporters are not part of them. Residues count along the entry.
UniProt Q9WTV6: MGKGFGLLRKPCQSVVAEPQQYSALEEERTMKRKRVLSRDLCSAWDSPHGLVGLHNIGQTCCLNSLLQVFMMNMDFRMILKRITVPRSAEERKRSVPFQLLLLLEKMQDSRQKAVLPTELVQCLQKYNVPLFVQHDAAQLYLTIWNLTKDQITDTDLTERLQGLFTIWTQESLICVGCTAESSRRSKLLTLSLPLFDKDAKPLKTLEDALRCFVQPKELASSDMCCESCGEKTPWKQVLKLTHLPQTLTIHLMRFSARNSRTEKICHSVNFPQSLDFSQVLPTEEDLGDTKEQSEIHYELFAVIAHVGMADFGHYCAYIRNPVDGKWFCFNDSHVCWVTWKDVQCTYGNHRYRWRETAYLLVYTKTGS
UniProt P05161, residues 1-157: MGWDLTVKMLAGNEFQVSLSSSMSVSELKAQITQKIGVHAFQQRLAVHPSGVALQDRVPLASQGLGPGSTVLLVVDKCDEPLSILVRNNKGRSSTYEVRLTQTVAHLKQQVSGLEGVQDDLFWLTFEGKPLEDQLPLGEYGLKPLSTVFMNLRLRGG
UniProt P52630: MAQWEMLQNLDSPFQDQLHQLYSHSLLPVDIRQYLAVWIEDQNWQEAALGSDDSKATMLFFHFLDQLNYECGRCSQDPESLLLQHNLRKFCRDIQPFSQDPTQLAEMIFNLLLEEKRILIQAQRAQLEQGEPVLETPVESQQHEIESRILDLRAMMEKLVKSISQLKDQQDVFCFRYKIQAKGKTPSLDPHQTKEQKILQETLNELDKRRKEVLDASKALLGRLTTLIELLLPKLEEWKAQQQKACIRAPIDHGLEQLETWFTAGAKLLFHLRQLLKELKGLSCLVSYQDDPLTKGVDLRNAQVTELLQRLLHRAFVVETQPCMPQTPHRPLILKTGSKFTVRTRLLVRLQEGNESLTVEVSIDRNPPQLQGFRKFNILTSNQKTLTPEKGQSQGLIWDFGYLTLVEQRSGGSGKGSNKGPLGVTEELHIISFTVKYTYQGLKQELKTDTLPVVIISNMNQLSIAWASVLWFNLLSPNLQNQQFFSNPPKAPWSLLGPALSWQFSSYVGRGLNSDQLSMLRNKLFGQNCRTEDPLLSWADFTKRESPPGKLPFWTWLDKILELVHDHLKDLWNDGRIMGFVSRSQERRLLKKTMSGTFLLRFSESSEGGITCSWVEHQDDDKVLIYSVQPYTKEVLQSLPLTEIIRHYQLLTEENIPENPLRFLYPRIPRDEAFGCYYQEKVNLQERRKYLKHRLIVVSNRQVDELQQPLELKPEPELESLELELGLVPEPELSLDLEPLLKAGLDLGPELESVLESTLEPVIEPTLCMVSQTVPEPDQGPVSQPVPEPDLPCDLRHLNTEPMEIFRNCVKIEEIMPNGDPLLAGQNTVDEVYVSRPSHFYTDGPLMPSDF

binding | Substance
binds | HaloTag-fused ISG15 (from UniProt P05161 1-157)
binds | HaloTag-fused STAT2 (from UniProt P52630 1-851)

From article PMC12668310, “High‐Throughput Synthesis and Screening of a Cyanimide Library Identifies Selective Inhibitors of ISG15‐Specific Protease mUSP18” (Angewandte Chemie (International Ed. in English), 2025)
